Test results reported in patent EP3454861B1, “BENZOXAZINE OR QUINAZOLINE DERIVATIVES FOR USE IN THE TREATMENT OF ALZHEIMER'S DISEASE” (Biocodex, priority 2016, dated 2017).

Experiments:
Type in all cases: in vivo, souris
Details in all cases: Aβ25-35/DPZ 1 (1 mg/kg IP)
Caspase-3 = test: ELISA of Caspase-3 in mouse hippocampus after Aβ25-35
Description: (§1) Le 1^er jour : une version « mélangée » (scrambled) du peptide amyloïde β25-35 (Sc.Aβ, témoin négatif) ou le peptide amyloïde β25-35 (Aβ25-35) est injecté par voie intra-cérébroventriculaire (ICV) (le peptide Aβ25-35 provoque l'intoxication cellulaire). Entre le 1^er jour et le 10^ème jour, les traitements sont administrés une fois par jour par voie intrapéritonéale (IP).
(§2) A la fin de la session de rétention d'évitement passif, le 10^ème jour, les animaux sont sacrifiés par décapitation. L'hippocampe et le cortex frontal sont disséqués et congelés dans l'azote liquide. L'hippocampe est utilisé pour mesurer le taux de peroxydation lipidique à l'aide d'une méthode colorimétrique et pour évaluer les taux de 4 marqueurs biochimiques par des tests ELISA. Le cortex est conservé à -80°C en attente d'analyses supplémentaires. Les plasmas sont également conservés en attente d'analyses supplémentaires. Les échantillons biologiques sont jetés après 3 mois.
(§3) Pour tous les dosages, les […] sont homogénéisés, après décongélation, dans un tampon Tris (Tris 50 mM, 150 mM NaCl, pH 7,5) et traités par ultrasons pendant 20 secondes. […] Pour chaque dosage, l'absorbance est lue à 450 nm et la concentration est calculée en utilisant la courbe standard. Les résultats sont exprimés en pg ou ng de marqueur par mg de tissu et en pourcentage de solution Sc.Aβ + véhicule. […]

Bax = test: ELISA of Bax in mouse hippocampus after Aβ25-35
Description: as §1, §2, §3

Bcl2 = test: ELISA of Bcl2 in mouse hippocampus after Aβ25-35
Description: as §1, §2, §3

GFAP = test: ELISA of GFAP in mouse hippocampus after Aβ25-35
Description: as §1, §2, §3

COc1cc2c(cc1OC)C(=O)C(CC1CCN(Cc3ccccc3)CC1)C2.Cl.O (stereo not shown) [Donépézil, 2-[(1-benzyl-4-piperidyl)methyl]-5,6-dimethoxy-2,3-dihydroinden-1-one, hydrochloride, hydrate (1:1:1)]
Expression CASP-3 (Caspase-3): 98,7 ± 4,3 % de Sc.Aβ/V
Taux de protéine Bax (Bax): 95,7 ± 4,3 % de Sc.Aβ/V
Taux de protéine Bcl2 (Bcl2): 100,3 ± 3 % de Sc.Aβ/V
Expression GFAP (GFAP): 110,3 ± 6,8 % de Sc.Aβ/V
